Two substances from patent US20180147256A1, “MEANS AND METHODS FOR TREATING FACIOSCAPULOHUMERAL MUSCULAR DYSTROPHY (FSHD)” (ACADEMISCH ZIEKENHUIS LEIDEN H.O.D.N. LUMC, priority 2015, published 2018) can be followed below.

The chains behind the UniProt entries cited, without tags or fusion partners. Where a name states a change or a piece, a line headed by the entry shows the natural chain unless it says otherwise. Residues count along the entry.
UniProt A6NHR9: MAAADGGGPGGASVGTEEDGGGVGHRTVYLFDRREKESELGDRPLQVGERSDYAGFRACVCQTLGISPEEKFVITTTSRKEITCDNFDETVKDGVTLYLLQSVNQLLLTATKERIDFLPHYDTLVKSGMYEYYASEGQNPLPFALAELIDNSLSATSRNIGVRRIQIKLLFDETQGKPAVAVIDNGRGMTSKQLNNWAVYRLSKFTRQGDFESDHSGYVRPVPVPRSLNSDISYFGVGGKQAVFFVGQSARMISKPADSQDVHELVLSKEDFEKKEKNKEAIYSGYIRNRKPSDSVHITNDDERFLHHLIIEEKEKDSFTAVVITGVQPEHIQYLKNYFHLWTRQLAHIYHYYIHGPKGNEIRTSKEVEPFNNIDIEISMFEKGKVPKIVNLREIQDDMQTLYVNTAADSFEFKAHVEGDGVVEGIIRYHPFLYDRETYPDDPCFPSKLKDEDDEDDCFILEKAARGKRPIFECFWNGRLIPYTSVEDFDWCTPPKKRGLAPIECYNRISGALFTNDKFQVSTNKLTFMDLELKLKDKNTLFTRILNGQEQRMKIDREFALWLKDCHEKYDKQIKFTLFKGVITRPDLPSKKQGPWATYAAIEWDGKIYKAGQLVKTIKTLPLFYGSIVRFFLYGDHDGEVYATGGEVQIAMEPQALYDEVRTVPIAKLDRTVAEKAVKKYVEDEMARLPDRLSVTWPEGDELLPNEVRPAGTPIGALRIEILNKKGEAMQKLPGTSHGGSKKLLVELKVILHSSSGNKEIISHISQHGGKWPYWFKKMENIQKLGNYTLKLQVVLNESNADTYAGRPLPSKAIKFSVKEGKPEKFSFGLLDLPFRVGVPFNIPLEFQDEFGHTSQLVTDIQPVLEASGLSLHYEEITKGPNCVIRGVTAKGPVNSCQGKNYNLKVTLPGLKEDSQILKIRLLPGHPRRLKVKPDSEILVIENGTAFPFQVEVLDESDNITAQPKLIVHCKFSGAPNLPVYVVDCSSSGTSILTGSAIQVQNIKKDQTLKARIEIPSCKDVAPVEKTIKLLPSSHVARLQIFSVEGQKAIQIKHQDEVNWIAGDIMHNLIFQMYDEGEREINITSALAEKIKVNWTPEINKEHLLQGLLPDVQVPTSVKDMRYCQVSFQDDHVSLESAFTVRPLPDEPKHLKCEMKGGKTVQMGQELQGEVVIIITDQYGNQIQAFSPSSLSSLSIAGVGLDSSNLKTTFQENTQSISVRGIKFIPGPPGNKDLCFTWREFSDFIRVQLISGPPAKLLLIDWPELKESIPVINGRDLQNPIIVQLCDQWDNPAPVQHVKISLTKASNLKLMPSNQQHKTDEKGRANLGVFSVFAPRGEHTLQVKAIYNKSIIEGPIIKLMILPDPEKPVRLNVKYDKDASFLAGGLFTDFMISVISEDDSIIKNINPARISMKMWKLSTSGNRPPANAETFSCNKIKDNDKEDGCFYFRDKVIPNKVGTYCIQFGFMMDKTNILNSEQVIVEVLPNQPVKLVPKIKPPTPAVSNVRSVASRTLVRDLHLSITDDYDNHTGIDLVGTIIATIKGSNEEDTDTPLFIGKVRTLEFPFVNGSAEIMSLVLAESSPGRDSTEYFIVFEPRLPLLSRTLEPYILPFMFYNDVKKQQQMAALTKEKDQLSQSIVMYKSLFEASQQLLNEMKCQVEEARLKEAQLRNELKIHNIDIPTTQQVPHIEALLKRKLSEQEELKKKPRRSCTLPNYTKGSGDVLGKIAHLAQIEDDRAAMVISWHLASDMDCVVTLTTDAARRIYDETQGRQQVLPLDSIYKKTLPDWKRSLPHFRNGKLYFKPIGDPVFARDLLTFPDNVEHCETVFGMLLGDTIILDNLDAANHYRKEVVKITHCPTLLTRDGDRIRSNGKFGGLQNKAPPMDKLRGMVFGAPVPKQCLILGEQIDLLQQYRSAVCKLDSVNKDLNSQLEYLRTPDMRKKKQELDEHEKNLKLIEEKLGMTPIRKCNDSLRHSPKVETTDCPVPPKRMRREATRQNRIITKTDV
UniProt P63165, residues 1-97: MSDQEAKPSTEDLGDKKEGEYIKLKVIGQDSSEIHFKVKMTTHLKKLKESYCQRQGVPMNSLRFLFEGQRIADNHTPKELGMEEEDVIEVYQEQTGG
UniProt P61956, residues 1-93: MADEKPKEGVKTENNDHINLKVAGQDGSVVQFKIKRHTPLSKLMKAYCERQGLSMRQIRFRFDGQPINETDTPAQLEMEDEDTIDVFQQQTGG

In assay [1] the target is HA tagged SMCHD1 (wild-type), expressed in HeLa cells (human) (UniProt A6NHR9). The assay is described as follows: Ni-NTA pull-down of His10-SUMO from HeLa lysate, HA Western blot; covalent SUMO conjugate. For orientation: A western blot detects proteins with antibodies after separation by electrophoresis.
Assay [2] has as its target HA tagged SMCHD1 mutated at K2002 (lysine to arginine) (human) (UniProt A6NHR9). As to the kind of experiment: Ni-NTA pull-down of His10-SUMO2 from HeLa lysate, HA Western blot; covalent SUMO conjugate.
The target in assay [3] is HA tagged SMCHD1 (wild-type), expressed in HeLa cells (human) (UniProt A6NHR9). The description is as above.

Results are given in words; binding and its absence hold for the method and conditions named. Binding seen in cells or lysates may run through a third protein. Some binding calls cover weakened binding; strength is not graded here.

Take “HIS10-SUMO1 (stably expressed in HeLa cells) (from UniProt P63165 1-97)”: the binding entry in assay [1] is “binds”.
As for “HIS10-SUMO2 (stably expressed in HeLa cells) (from UniProt P61956 1-93)”, the binding result in assay [2], in assay [3] and in assay [1] was “binds” in each case.
